The assay concerns the target FLAG-tagged EIF4A3 (UniProt P38919). Description: affinity purification with mass spectrometry; SILAC; FLAG or FLAG-EIF4A3 from 293 WT cells and CASC3 KO clone H cells treated with CASC3 siRNA; lysis in buffer E with RNase A (20 mM HEPES-KOH pH 7.9, 100 mM KCl); anti-FLAG M2 magnetic beads, 4°C, 2 h; eluted with FLAG peptides.

The chains behind the UniProt entries cited, without tags or fusion partners.
UniProt P38919: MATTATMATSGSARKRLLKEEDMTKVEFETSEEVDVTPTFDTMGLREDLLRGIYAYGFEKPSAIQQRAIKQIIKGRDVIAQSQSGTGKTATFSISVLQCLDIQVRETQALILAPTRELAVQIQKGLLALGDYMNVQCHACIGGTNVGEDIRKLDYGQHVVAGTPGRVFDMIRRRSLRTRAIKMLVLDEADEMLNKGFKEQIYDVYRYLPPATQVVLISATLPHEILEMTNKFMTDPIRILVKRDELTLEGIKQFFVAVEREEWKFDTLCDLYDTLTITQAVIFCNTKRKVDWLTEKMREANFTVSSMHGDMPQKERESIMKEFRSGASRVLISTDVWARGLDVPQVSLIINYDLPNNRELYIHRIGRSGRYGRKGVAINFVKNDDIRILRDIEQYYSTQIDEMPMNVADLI
UniProt O15234: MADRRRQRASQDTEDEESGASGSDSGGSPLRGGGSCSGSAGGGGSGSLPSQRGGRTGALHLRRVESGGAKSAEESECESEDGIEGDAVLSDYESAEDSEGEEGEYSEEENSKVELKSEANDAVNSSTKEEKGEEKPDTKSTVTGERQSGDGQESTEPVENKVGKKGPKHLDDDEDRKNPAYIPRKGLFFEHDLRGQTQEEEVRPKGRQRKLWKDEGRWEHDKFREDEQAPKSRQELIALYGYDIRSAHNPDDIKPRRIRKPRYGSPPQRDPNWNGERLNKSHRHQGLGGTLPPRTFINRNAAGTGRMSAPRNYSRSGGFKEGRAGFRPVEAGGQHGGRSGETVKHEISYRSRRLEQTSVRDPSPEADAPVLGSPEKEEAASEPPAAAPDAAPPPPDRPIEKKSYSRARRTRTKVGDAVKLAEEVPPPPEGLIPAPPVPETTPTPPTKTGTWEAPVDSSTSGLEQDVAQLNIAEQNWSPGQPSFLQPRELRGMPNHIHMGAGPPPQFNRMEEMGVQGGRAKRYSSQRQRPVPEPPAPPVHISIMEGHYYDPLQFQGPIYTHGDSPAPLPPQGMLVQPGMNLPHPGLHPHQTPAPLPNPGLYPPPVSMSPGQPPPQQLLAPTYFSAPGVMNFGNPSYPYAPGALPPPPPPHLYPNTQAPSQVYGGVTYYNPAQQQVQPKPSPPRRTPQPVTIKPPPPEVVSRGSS

These are yes or no findings as the source states them, for the method shown. Binding seen in cells or lysates may run through a third protein. These calls come from enrichment with a bait or labelling near it, and not all partners need be listed.

In the case of CASC3 (from UniProt O15234 1-703), the binding result is listed as “binds”.

The record behind these values is paper PMC7470949.
